Results deposited as PubChem BioAssay AID1224826 (NIAID, 2016).
Here is a random part of about 17,000 reagents tested. About 1,110 of all reagents (6.6%) count as active. 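Active means lowered or raised reporter signal; replicate intensities are raw and not normalised per plate.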 Not all columns of the deposit are shown. No sequences are given here.

- Screen: 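Regulators of Tlr4 signalling leading to Tnf-alpha expression in macrophages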 (primary screen)
- Cell system: RAW264.7 G9 macrophages from mouse bearing reporters for p65 (GFP) and the Tnf promoter (mCherry)
- Reagent: siRNA pool against mouse genes, 100 nM
- Timing: 16 h of LPS stimulation, after 2 days of siRNA transfection
- Treatment: bacterial lipopolysaccharide (Salmonella minnesota R595), 10 ng/ml
- Measured: 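Nuclear mCherry signal of the Tnf promoter reporter measured by imaging after background removal, scaled to each plate median and turned into robust z-scores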
- Direction: Tnf reporter robust z-score: higher = stronger Tnf promoter reporter signal after LPS
- Rule for the call: 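Called active when robust z-score is at most -1.3, matching the median of the Tlr4 knock-down control, or over 3; control wells and wells with under 50 cells never active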
- Calls: active = Tnf reporter clearly lowered or raised; inactive = no clear change in Tnf reporter

{"Target gene": "Sfxn5 (sideroflexin 5)", "Tnf reporter robust z-score": -2.19, "fewer than 50 cells in well": "enough cells in well", "outcome": "active"}
{"Target gene": "Adamts9 (ADAM metallopeptidase with thrombospondin type 1 motif 9)", "Tnf reporter robust z-score": -0.07, "fewer than 50 cells in well": "enough cells in well", "outcome": "inactive"}
{"Target gene": "Exoc3l2 (exocyst complex component 3-like 2)", "Tnf reporter robust z-score": 4.98, "fewer than 50 cells in well": "enough cells in well", "outcome": "active"}
{"Target gene": "4921536K21Rik (RIKEN cDNA 4921536K21 gene)", "Tnf reporter robust z-score": -0.11, "fewer than 50 cells in well": "enough cells in well", "outcome": "inactive"}
{"Target gene": "Icam1 (intercellular adhesion molecule 1)", "Tnf reporter robust z-score": -0.46, "fewer than 50 cells in well": "enough cells in well", "outcome": "inactive"}
{"Target gene": "H2bc18 (H2B clustered histone 18)", "Tnf reporter robust z-score": -1.1, "fewer than 50 cells in well": "enough cells in well", "outcome": "inactive"}
{"Target gene": "Cyp7a1 (cytochrome P450, family 7, subfamily a, polypeptide 1)", "Tnf reporter robust z-score": -0.62, "fewer than 50 cells in well": "enough cells in well", "outcome": "inactive"}

2 entries from above, set out differently.
Target gene,Tnf reporter robust z-score,fewer than 50 cells in well,outcome
Adamts9 (ADAM metallopeptidase with thrombospondin type 1 motif 9),-0.07,enough cells in well,inactive
Exoc3l2 (exocyst complex component 3-like 2),4.98,enough cells in well,active

The results go on.
{"Target gene": "Tmem214 (transmembrane protein 214)", "Tnf reporter robust z-score": 1.96, "fewer than 50 cells in well": "enough cells in well", "outcome": "inactive"}
{"Target gene": "Sec61b (SEC61 translocon subunit beta)", "Tnf reporter robust z-score": -0.13, "fewer than 50 cells in well": "enough cells in well", "outcome": "inactive"}
{"Target gene": "Hba-x (hemoglobin X, alpha-like embryonic chain in Hba complex)", "Tnf reporter robust z-score": 2.06, "fewer than 50 cells in well": "enough cells in well", "outcome": "inactive"}
{"Target gene": "Clybl (citrate lyase beta like)", "Tnf reporter robust z-score": 0.13, "fewer than 50 cells in well": "enough cells in well", "outcome": "inactive"}
{"Target gene": "Arsj (arylsulfatase J)", "Tnf reporter robust z-score": -0.33, "fewer than 50 cells in well": "enough cells in well", "outcome": "inactive"}
{"Target gene": "Degs2 (delta 4-desaturase, sphingolipid 2)", "fewer than 50 cells in well": "fewer than 50 cells per well; well left out of calls", "outcome": "inactive"}
{"Target gene": "Mybbp1a (MYB binding protein (P160) 1a)", "Tnf reporter robust z-score": -1.1, "fewer than 50 cells in well": "enough cells in well", "outcome": "inactive"}
